The numbers were not newly measured in article PMC8401933 (Molecules, 2021), which cites them from elsewhere.

For the series the following is noted: cited from earlier work.

`CN(C)c1nc2c(Br)c(Br)c(Br)c(Br)c2[nH]1` [DMAT, 2-dimethylamino-4,5,6,7-tetrabromo-1H-benzimidazole]: the promiscuity score is reported as 48.60%.
With `O=C1c2ccc(O)c(O)c2C(=O)c2c(O)ccc(O)c21` [quinalizarin, 1,2,5,8-tetrahydroxyanthraquinone], the promiscuity score was 9.47%.
